Laboratory results as given in patent US20250160718A1, “SYSTEMS AND METHODS FOR HIGH-DENSITY LONG-TERM INTRACELLULAR ELECTROPHYSIOLOGY” (President and Fellows of Harvard College, priority 2022, published 2025).
At least one compound was matched to its structure with a doubt left.

System: genetically modified MDCK cell line (RasV12 and GFP gene)
Assay: Cell adhesion of genetically modified MDCK cell line (tetracycline-switched RasV12 and GFP gene) by normalized cross-electrode impedance
Assay type: cell-based, Canine
Conditions: tetracycline added after the 2 DIV measurement, removed after 4 DIV; compared to control culture without tetracycline

**Q.** How did the “effect on cell adhesion” value turn out when CN(C)[C@@H]1C(O)=C(C(N)=O)C(=O)[C@@]2(O)C(O)=C3C(=O)c4c(O)cccc4[C@@](C)(O)[C@H]3C[C@@H]12 [tetracycline] was run?
**A.** decrease in cell adhesion
